According to PubChem BioAssay AID256 (DTP/NCI, 2004):
The list does not hold the whole screen: it gathers tests that were run many times, whatever their T/C, doses with no T/C, and many T/C values between a quarter and a half above the control. Further doses and runs are listed elsewhere. T/C: endpoint of the treated group in % of that of the vehicle group. Some doses have a count of surviving animals in place of a T/C: the source files T/C as zero there, which appears to mark a toxic dose or a test without result, not a measured value. Some survivor counts are full or nearly so, which does not show that the dose was tolerated: the source hardly ever lists a survival T/C far under the control, and the zero likely stands for such cases as well. Counts of survivors are from the toxicity check (mostly the fifth day) where no day follows; animals may have died later. Schedule codes are those of the source, read here as Q, the interval in days (D) or hours (H), X, the number of doses. Some doses were run more than once; the results are listed from low to high. Where survival is the endpoint, this PubChem deposit counts one and a half times the control or more as active, and values a quarter to a half above the control carry no call in these data; other NCI protocols may use other cut-offs. Some T/C values are followed by the survivors on the day toxicity was checked, most often the fifth; without a count, all were alive then.

Tested on: CD2F1 mice, L1210 leukemia ip, survival T/C
Assay: NCI In Vivo Anticancer Drug Screen. Data for tumor model L1210 Leukemia (intraperitoneal) in CD2F1 (CDF1) mice
Conditions: T/C endpoint: mean survival time, higher T/C = longer survival
Procedure, shortened: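 Transplantable tumor in mice; compound-treated vs vehicle-treated groups. Read-out = treated/control ratio of the measured endpoint.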

[1] = dose: 4.0 mg/kg/injection, schedule: Q01DX009 (ip), vehicle: dextrose
[2] = dose: 100.0 mg/kg/injection, schedule: Q01DX001 (ip), vehicle: saline with Tween-80
[3] = dose: 200.0 mg/kg/injection, schedule: Q01DX001 (ip), vehicle: saline with Tween-80
[4] = dose: 400.0 mg/kg/injection, schedule: Q01DX001 (ip), vehicle: saline with Tween-80
[5] = dose: 50.0 mg/kg/injection, schedule: Q01DX009 (ip), vehicle: saline with Tween-80
[6] = dose: 25.0 mg/kg/injection, schedule: Q01DX009 (ip), vehicle: Klucel (hydroxypropylcellulose) (HPC)
[7] = dose: 400.0 mg/kg/injection, schedule: Q04DX003 (ip), vehicle: saline
[8] = dose: 100.0 mg/kg/injection, schedule: Q04DX002 (ip), vehicle: saline with Tween-80

Compound: O=S(=O)(O)c1ccccc1.O=S(=O)(O)c1ccccc1.[NH-]C1CCCCC1[NH-].[Pt+2]
- T/C (dose: 0.25 mg/kg/injection, schedule: Q01DX009 (ip), vehicle: dextrose): 125 % of control
- T/C (dose: 0.5 mg/kg/injection, schedule: Q01DX009 (ip), vehicle: dextrose): 134 % of control
- T/C (dose: 1.0 mg/kg/injection, schedule: Q01DX009 (ip), vehicle: dextrose): 148 % of control
- T/C (dose: 1.0 mg/kg/injection, schedule: Q04DX003 (ip), vehicle: dextrose): 125 % of control
- T/C (dose: 2.0 mg/kg/injection, schedule: Q01DX001 (ip), vehicle: dextrose): 128 and 135 % of control
- T/C (dose: 2.0 mg/kg/injection, schedule: Q04DX003 (ip), vehicle: dextrose): 140 % of control
- T/C (dose: 4.0 mg/kg/injection, schedule: Q01DX001 (ip), vehicle: dextrose): 146 % of control
- T/C [1]: 148 % of control
- survivor count [1]: 6 of 6
- T/C (dose: 4.0 mg/kg/injection, schedule: Q04DX003 (ip), vehicle: other): 140 % of control
- T/C (dose: 6.0 mg/kg/injection, schedule: Q01DX001 (ip), vehicle: dextrose): 142 % of control
- survivor count (dose: 6.0 mg/kg/injection, schedule: Q01DX009 (ip), vehicle: dextrose): 5 of 6
- T/C (dose: 8.0 mg/kg/injection, schedule: Q01DX001 (ip), vehicle: dextrose): 126 and 148 % of control
- survivor count (dose: 8.0 mg/kg/injection, schedule: Q01DX009 (ip), vehicle: dextrose): 5 of 6
- survivor count (dose: 8.0 mg/kg/injection, schedule: Q04DX003 (ip), vehicle: other): 6 of 6
- T/C (dose: 10.0 mg/kg/injection, schedule: Q01DX001 (ip), vehicle: dextrose): 140 % of control
- T/C (dose: 12.0 mg/kg/injection, schedule: Q01DX001 (ip), vehicle: dextrose): 145 % of control
- T/C (dose: 20.0 mg/kg/injection, schedule: Q01DX001 (ip), vehicle: dextrose): 145 % of control

Compound: CC1(C)C=CS1(=O)=O
- survivor count (dose: 400.0 mg/kg/injection, schedule: Q01DX001 (ip), vehicle: saline): 2 of 6

Compound: CC(=O)OCC1OC(N=C=S)C(OC(C)=O)C(OC(C)=O)C1OC(C)=O (configuration not stated)
- survivor count (dose: 100.0 mg/kg/injection, schedule: Q01DX009 (ip), vehicle: saline with Tween-80): 0 of 3
- survivor count (dose: 200.0 mg/kg/injection, schedule: Q01DX009 (ip), vehicle: saline with Tween-80): 0 of 3

Compound: COC(=O)C1(C)CCCC2(C)C3CCC(C)(CCO)C(O)C3CCC12 (configuration not stated)
- survivor count [2]: 6 of 6
- survivor count [3]: 6 of 6
- survivor count [4]: 6 of 6

Compound: c1ccc(P(=N[P+](c2ccccc2)(c2ccccc2)c2ccccc2)(c2ccccc2)c2ccccc2)cc1
- survivor count (dose: 3.0 mg/kg/injection, schedule: Q01DX009 (ip), vehicle: saline): 2 of 3
- survivor count (dose: 6.25 mg/kg/injection, schedule: Q01DX009 (ip), vehicle: saline with Tween-80): 0 of 3
- survivor count (dose: 12.5 mg/kg/injection, schedule: Q01DX009 (ip), vehicle: saline with Tween-80): 0 of 3
- survivor count (dose: 25.0 mg/kg/injection, schedule: Q01DX009 (ip), vehicle: saline with Tween-80): 0 of 3
- survivor count (dose: 25.0 mg/kg/injection, schedule: Q04DX002 (ip), vehicle: saline with Tween-80): 1 of 3
- survivor count [5]: 0 of 3
- survivor count (dose: 50.0 mg/kg/injection, schedule: Q04DX002 (ip), vehicle: saline with Tween-80): 1 of 3

Compound: CS(=O)(=O)OCC(/C=C/C(COS(C)(=O)=O)OS(C)(=O)=O)OS(C)(=O)=O (configuration not stated)
- T/C [6]: 128 % of control
- T/C (dose: 50.0 mg/kg/injection, schedule: Q01DX009 (ip), vehicle: Klucel (hydroxypropylcellulose) (HPC)): 134 % of control

Compound: Cc1cc(N(CCOS(C)(=O)=O)CCOS(C)(=O)=O)ccc1N=O
- T/C (dose: 0.5 mg/kg/injection, schedule: Q01DX010 (ip), vehicle: saline): 125 % of control
- survivor count (dose: 2.0 mg/kg/injection, schedule: Q01DX010 (ip), vehicle: saline): 4 of 6
- survivor count (dose: 4.0 mg/kg/injection, schedule: Q01DX010 (ip), vehicle: saline): 2 of 6

Compound: Cc1c(N)cccc1F
- survivor count (dose: 100.0 mg/kg/injection, schedule: Q01DX009 (ip), vehicle: saline sonified): 6 of 6
- survivor count (dose: 200.0 mg/kg/injection, schedule: Q01DX009 (ip), vehicle: saline sonified): 1 of 6
- survivor count [7]: 1 of 6

Compound: NCCN1c2ccccc2Sc2ccccc21
- survivor count (dose: 100.0 mg/kg/injection, schedule: Q01DX009 (ip), vehicle: other): 0 of 6
- survivor count (dose: 200.0 mg/kg/injection, schedule: Q01DX009 (ip), vehicle: other): 0 of 6

Compound: COc1ccc2[nH]c3cc(Cl)ccc3c(=O)c2c1
- survivor count [3]: 6 of 6

Compound: NC(=S)N/N=C/c1cc(-c2cccc(N)c2)ccn1
- T/C [5]: 126 % of control
- survivor count (dose: 150.0 mg/kg/injection, schedule: Q01DX009 (ip), vehicle: saline with Tween-80): 0 of 6 and 1 of 6

Compound: O=C(O)/C=N/NS(=O)(=O)c1ccccc1
- survivor count (dose: 200.0 mg/kg/injection, schedule: Q01DX009 (ip), vehicle: water): 5 of 6

Compound: CC(C)COCCCN
- survivor count (dose: 200.0 mg/kg/injection, schedule: Q04DX003 (ip), vehicle: saline): 0 of 6
- survivor count [7]: 0 of 6

Compound: Clc1ccc([PH+](c2ccc(Cl)cc2)c2ccc(Cl)cc2)cc1.Clc1ccc([PH+](c2ccc(Cl)cc2)c2ccc(Cl)cc2)cc1.[Cl][Hg][Cl]
- survivor count [6]: 1 of 3

Compound: CCN(CC)CCNc1ncnc(N)c1C(=C(C)C)c1ccc(Cl)cc1
- survivor count [4]: 2 of 6

Compound: O=S(=O)(O)O.[NH-]C(c1ccccc1)C([NH-])c1ccccc1.[Pt+2] (configuration not stated)
- T/C (dose: 6.25 mg/kg/injection, schedule: Q04DX003 (ip), vehicle: saline with Tween-80): 131 % of control
- T/C (dose: 12.5 mg/kg/injection, schedule: Q04DX003 (ip), vehicle: saline with Tween-80): 134 and 148 % of control [5 of 6 alive]
- T/C (dose: 25.0 mg/kg/injection, schedule: Q04DX003 (ip), vehicle: saline with Tween-80): 146 % of control

Compound: NC1CCCCCCC1O (configuration not stated)
- survivor count (dose: 100.0 mg/kg/injection, schedule: Q01DX001 (ip), vehicle: saline sonified): 0 of 6
- survivor count (dose: 200.0 mg/kg/injection, schedule: Q01DX001 (ip), vehicle: saline sonified): 0 of 6
- survivor count (dose: 400.0 mg/kg/injection, schedule: Q01DX001 (ip), vehicle: saline sonified): 0 of 6

Compound: c1ccc2c(c1)ccc1c2c[n+](CCCCCCCC[n+]2cc3c4ccccc4ccc3c3ccccc32)c2ccccc12
- T/C (dose: 6.25 mg/kg/injection, schedule: Q04DX003 (ip), vehicle: distilled water + Tween-80): 125 % of control
- T/C (dose: 12.5 mg/kg/injection, schedule: Q04DX003 (ip), vehicle: distilled water + Tween-80): 130 % of control
- T/C (dose: 25.0 mg/kg/injection, schedule: Q04DX003 (ip), vehicle: distilled water + Tween-80): 135 % of control

Compound: O=C(NC(=S)Nc1cccc2ccccc12)c1cccc(Br)c1
- T/C [8]: 88, 93, 95 % of control
- survivor count [8]: 6 of 6
- T/C (dose: 200.0 mg/kg/injection, schedule: Q04DX002 (ip), vehicle: saline with Tween-80): 86, 91, 102, 115 % of control

Compound: CCCCCCCCCCCCCCOc1ccc(OCCCCCCCCCCC)cc1
- survivor count [2]: 6 of 6

Compound: Oc1c(Br)cc(Br)c(O)c1Br
- survivor count (dose: 400.0 mg/kg/injection, schedule: Q04DX003 (ip), vehicle: saline with Tween-80): 2 of 6

Compound: CCOc1ccc(C(/C(Cl)=N/O)C(Cl)(Cl)Cl)cc1 (configuration not stated)
- survivor count (dose: 75.0 mg/kg/injection, schedule: Q01DX009 (ip), vehicle: saline with Tween-80): 6 of 6
- survivor count (dose: 115.0 mg/kg/injection, schedule: Q01DX009 (ip), vehicle: saline with Tween-80): 0 of 6
- survivor count (dose: 170.0 mg/kg/injection, schedule: Q01DX009 (ip), vehicle: saline with Tween-80): 0 of 6

Compound: COc1ccc(NC(=S)/C(=C(\[O-])c2ccc([N+](=O)[O-])cc2)[n+]2ccc(C(C)C)cc2)cc1
- survivor count (dose: 400.0 mg/kg/injection, schedule: Q01DX009 (ip), vehicle: saline with Tween-80): 6 of 6
